# Experimental data as given in PMC6557629.
# Protein sequences, listed by entry. Tags and fused reporters are not part of them. Residues count along the entry.
# UniProt P04114, residues 28-4563: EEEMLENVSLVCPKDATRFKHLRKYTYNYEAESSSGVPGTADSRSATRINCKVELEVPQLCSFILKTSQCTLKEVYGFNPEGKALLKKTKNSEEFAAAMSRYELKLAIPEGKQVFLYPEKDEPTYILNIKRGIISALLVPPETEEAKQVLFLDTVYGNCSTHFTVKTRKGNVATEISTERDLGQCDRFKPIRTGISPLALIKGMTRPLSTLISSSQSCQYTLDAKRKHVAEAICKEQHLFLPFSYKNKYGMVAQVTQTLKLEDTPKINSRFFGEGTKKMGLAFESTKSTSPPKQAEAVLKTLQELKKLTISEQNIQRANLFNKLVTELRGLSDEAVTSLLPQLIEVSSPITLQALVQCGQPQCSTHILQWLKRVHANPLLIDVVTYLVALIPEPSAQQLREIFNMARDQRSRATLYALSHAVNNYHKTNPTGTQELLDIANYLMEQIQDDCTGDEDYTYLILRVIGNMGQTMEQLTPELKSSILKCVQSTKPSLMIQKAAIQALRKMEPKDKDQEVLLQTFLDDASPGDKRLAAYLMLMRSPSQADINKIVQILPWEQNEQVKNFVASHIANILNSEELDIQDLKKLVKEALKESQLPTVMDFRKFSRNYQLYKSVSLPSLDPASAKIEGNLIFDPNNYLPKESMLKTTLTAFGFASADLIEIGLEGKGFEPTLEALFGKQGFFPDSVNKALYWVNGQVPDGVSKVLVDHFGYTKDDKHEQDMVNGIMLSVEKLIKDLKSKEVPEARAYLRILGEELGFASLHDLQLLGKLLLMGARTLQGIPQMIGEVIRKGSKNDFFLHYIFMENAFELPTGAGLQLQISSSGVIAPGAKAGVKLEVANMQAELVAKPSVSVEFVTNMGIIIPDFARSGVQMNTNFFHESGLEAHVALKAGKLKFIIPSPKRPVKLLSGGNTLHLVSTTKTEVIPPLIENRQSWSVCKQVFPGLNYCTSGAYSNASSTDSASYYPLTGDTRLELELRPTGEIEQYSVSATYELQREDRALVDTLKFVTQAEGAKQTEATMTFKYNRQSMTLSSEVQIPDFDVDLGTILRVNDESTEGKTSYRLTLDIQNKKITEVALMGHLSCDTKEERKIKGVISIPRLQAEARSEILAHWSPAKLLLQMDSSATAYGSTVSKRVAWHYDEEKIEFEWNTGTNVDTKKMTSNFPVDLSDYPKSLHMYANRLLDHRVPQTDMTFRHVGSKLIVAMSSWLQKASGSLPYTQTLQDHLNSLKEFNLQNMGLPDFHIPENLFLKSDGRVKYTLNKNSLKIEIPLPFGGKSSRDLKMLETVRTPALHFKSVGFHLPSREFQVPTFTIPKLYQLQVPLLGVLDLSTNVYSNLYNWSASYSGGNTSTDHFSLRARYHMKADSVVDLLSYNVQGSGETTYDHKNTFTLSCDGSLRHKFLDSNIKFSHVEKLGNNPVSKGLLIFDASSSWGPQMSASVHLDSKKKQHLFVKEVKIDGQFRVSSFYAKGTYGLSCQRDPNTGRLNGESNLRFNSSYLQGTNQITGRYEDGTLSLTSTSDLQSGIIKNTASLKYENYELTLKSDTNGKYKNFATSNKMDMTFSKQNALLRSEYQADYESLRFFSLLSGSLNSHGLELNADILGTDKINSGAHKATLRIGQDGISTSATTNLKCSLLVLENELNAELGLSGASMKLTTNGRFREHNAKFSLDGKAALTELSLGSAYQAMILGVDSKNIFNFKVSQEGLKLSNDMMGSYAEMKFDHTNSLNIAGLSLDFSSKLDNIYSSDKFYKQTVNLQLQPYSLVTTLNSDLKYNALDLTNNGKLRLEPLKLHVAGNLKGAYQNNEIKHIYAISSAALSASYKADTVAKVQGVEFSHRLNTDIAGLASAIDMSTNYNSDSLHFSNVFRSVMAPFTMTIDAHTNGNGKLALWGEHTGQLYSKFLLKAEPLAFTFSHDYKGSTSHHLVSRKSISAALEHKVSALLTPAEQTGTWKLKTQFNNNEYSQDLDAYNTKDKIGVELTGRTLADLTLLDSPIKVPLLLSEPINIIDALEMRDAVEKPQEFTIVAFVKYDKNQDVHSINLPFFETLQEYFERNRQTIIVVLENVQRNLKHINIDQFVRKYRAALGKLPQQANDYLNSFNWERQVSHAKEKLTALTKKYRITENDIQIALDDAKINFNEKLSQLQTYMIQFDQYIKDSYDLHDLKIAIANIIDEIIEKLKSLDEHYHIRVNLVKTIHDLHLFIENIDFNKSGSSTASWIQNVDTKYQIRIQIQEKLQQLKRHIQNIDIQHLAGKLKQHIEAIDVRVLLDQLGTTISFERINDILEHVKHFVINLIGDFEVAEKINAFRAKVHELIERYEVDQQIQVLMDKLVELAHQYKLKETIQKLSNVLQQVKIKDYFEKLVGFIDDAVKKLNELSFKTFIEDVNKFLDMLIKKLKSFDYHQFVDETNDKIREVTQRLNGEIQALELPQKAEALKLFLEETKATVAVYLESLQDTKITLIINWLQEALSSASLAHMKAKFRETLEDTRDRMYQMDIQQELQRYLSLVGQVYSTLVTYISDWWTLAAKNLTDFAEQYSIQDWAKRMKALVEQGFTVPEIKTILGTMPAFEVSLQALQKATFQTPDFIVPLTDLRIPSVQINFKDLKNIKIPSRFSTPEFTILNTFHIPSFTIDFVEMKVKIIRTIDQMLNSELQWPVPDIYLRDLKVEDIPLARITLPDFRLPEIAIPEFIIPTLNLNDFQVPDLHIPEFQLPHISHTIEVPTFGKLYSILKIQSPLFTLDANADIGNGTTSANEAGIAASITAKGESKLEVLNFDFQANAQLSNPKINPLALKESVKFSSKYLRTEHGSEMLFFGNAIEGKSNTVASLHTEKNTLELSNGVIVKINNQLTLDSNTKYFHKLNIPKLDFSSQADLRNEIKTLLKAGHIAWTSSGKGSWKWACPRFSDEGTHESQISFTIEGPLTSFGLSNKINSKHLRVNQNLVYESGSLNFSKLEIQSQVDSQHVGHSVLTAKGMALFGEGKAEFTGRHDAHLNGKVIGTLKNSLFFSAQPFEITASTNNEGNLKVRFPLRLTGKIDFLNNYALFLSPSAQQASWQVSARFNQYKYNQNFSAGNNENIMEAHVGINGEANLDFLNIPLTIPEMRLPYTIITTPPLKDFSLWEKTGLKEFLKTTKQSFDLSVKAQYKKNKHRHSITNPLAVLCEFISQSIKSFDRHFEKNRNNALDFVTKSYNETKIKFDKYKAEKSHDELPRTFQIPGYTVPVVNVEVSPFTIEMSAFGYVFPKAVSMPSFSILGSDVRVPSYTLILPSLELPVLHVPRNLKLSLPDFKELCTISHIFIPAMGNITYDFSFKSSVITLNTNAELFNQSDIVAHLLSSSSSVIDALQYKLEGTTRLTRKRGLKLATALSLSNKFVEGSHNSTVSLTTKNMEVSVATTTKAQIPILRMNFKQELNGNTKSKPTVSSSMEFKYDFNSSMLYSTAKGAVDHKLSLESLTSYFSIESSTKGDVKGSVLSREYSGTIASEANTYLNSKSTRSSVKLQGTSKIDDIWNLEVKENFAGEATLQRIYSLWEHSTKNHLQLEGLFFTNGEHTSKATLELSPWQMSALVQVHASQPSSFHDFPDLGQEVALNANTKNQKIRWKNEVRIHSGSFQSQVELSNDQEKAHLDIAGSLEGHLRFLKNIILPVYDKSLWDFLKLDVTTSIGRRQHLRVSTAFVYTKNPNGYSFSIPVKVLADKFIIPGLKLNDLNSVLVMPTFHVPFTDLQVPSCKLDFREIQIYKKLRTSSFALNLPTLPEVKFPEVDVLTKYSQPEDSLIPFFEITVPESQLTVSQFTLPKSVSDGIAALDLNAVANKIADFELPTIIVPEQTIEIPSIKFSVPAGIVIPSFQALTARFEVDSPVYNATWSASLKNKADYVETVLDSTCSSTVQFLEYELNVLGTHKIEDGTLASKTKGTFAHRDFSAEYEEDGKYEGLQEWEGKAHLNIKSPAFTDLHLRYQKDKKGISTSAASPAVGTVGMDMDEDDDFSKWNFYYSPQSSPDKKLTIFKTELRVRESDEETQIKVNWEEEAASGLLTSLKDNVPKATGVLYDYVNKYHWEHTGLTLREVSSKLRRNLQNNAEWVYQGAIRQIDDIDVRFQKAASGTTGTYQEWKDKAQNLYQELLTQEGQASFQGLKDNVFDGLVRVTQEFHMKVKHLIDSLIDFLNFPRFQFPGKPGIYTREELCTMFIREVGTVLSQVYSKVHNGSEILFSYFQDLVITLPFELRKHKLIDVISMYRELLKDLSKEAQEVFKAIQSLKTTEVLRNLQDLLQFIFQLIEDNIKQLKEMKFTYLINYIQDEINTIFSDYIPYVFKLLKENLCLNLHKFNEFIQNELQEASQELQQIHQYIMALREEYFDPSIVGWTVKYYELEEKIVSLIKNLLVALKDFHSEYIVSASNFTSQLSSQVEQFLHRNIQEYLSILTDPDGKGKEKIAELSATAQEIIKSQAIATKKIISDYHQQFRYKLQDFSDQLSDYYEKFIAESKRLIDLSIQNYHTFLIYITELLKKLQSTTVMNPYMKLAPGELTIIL
# These are yes or no findings as the source states them, for the method shown. Some results given as binding are weak or reduced against the parent protein; the word gives no strength.
# T1: Recombinant human serum amyloid A isoform 1.1 (human), P0DJI8
# T1 chain: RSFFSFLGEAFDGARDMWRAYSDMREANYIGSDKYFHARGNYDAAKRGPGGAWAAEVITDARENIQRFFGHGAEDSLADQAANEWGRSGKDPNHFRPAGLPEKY
# Tests used:
# [1] = biological target: T1, Recombinant human serum amyloid A …; experiment: native gel or EMSA; lipid-free SAA on non-denaturing PAGE, Novex 4-20% Tris-glycine gels, 6 ug protein per lane, Tris-glycine buffer; both purified; settings: remark: other sources report otherwise
# [2] = biological target: apoB of human plasma LDL (human (endogenous in plasma LDL)) (UniProt P04114); experiment: native gel or EMSA; hSAA1.1 mixed with human plasma LDL at 1:1 weight ratio of SAA to apoB; non-denaturing PAGE; only the binder purified
binding [1],binding [2],Binder
binds,,"Recombinant human serum amyloid A isoform 1.1, P0DJI8 19-122 (protein) RSFFSFLGEAFDGARDMWRAYSDMREANYIGSDKYFHARGNYDAAKRGPGGAWAAEVITDARENIQRFFGHGAEDSLADQAANEWGRSGKDPNHFRPAGLPEKY"
,no binding,"Recombinant human serum amyloid A isoform 1.1 (protein, UniProt P0DJI8 19-122) RSFFSFLGEAFDGARDMWRAYSDMREANYIGSDKYFHARGNYDAAKRGPGGAWAAEVITDARENIQRFFGHGAEDSLADQAANEWGRSGKDPNHFRPAGLPEKY"
